{"sequences": {"note": "Chains of the proteins cited; added tags and fusions are not shown.", "UniProt P35631": "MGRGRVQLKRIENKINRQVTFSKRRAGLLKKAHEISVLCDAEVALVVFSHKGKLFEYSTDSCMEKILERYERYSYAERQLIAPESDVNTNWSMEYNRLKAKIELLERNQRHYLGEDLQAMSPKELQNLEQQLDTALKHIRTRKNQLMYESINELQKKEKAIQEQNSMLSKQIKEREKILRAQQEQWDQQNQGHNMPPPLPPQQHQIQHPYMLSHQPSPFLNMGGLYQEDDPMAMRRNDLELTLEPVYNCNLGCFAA"}, "source": "paper PMC12643531", "key": {"[1]": {"target": "APETALA1 (AP1), in vitro translated (Arabidopsis thaliana) (UniProt P35631)", "assay": "co-IP; in vitro: proteins co-synthesized in one tube in wheat germ extract with biotinylated lysine; AP1 or SEP3 as bait precipitated with AP1 or SEP3 antibodies, Protein A MicroBeads, 4°C; Western blot with Streptavidin-Alkaline Phosphatase"}, "[2]": {"target": "…3 (SEP3), in vitro translated (Arabidopsis thaliana) (UniProt O22456)", "assay": "co-IP; in vitro: proteins co-synthesized in one tube in wheat germ extract with biotinylated lysine; AP1 or SEP3 as bait precipitated with AP1 or SEP3 antibodies, Protein A MicroBeads, 4°C; Western blot with Streptavidin-Alkaline Phosphatase"}}, "note": "Results are given in words; binding and its absence hold for the method and conditions named. Binding seen in cells or lysates may run through a third protein. Some entries that bind do so weakly or less than the wild type."}
{"binder": "LEUNIG_HOMOLOG (LUH), in vitro translated (protein, UniProt O48847 1-787, biotinylated lysine residues (Transcend tRNA)) MAQSNWEADKMLDVYIYDYLVKKKLHNTAKSFMTEGKVSPDPVAIDAPGGFLFEWWSVFWDIFIARTNEKHSEAAAAYIEAQQGKAKEQQMQIQQLQMMRQAQMQRRDPNHPSLGGPMNAIGSEGMIGQSNASALAAKMYEERMKQPNPMNSETSQPHLDARMALLKSATNHHGQIVQGNHQGGVSAALQQIQSRTQQPTEIKTEVNLGTSPRQLPVDPSTVYGQGILQSKPGMGSAGLNPGVSGLPLKGWPLTGIEQMRPGLGGPQVQKSFLQNQSQFQLSPQQQQHQMLAQVQAQGNMTNSPMYGGDMDPRRFTGLPRGNLNPKDGQQNANDGSIGSPMQSSSSKHISMPPVQQSSSQQQDHLLSQQSQQNNRKRKGPSSSGPANSTGTGNTVGPSNSQPSTPSTHTPVDGVAIAGNMHHVNSMPKGPMMYGSDGIGGLASSANQLLQDDMDQFGDVGALEDNVESFLSQDDGDGGSLFGTLKRNSSVHTETSKPFSFNEVSCIRKSASKVICCSFSYDGKLLASAGHDKKVFIWNMETLQVESTPEEHAHIITDVRFRPNSTQLATSSFDKTIKIWDASDPGYFLRTISGHAAPVMSIDFHPKKTELLCSCDSNNDIRFWDINASCVRAVKGASTQVRFQPRTGQFLAAASENTVSIFDIENNNKRVNIFKGHSSNVHSVCWSPNGELVASVSEDAVKLWSLSSGDCIHELSNSGNKFHSVVFHPSYPDLLVIGGYQAIELWNTMENKCMTVAGHECVISALAQSPSTGVVASASHDKSVKIWK", "values": [{"measurement": "binding", "setting": "[1]", "result": "binds"}, {"measurement": "binding", "setting": "[2]", "result": "binds"}]}
